These are yes or no findings as the source states them, for the method shown. Binding seen in cells or lysates may run through a third protein. Some entries that bind do so weakly or less than the wild type.

Chains of the proteins cited; added tags and fusions are not shown. Lines headed by an entry give the natural chain unless they say otherwise; changes in a name come on top. Residues count along the entry.
UniProt P05106, residues 27-788: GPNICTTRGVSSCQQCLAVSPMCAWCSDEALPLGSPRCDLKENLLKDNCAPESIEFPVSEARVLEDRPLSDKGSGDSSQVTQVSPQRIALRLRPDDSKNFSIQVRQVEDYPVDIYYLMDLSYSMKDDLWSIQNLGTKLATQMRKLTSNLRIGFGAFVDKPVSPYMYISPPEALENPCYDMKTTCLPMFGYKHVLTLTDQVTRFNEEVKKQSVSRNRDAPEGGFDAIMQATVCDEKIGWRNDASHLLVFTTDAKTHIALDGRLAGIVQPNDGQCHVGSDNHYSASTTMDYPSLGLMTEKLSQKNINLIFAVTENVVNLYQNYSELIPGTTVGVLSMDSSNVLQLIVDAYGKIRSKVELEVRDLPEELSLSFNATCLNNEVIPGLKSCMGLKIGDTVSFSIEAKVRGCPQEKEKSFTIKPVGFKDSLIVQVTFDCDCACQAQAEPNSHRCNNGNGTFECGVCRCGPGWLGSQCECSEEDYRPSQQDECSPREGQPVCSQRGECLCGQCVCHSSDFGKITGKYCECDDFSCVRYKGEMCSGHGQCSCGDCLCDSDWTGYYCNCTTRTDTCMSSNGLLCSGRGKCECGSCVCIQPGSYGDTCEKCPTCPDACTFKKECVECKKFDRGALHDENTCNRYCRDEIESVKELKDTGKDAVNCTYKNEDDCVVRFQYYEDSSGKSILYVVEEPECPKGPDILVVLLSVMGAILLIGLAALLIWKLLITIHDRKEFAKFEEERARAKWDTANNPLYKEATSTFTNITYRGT
UniProt Q08722: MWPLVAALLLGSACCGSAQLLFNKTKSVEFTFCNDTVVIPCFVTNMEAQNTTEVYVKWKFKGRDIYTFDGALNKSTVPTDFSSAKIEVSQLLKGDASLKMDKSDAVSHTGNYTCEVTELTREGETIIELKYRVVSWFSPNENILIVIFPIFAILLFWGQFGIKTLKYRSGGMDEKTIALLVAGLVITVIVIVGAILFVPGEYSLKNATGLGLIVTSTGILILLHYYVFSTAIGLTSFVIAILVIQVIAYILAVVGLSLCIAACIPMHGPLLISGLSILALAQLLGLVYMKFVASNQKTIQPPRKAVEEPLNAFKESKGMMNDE

The target of the experiment is β3 protein (β3 integrin subunit) of human endothelial cells (human) (UniProt P05106). The experiment can be described thus: co-immunoprecipitation from human endothelial cells exposed to PTA-13161 antibody (FIG. 6C).

In the case of “human IAP protein (from UniProt Q08722 19-303) (receptor)”, the binding entry is “binds”.
